The list shows a part of the results.
Assays:
Experiment in all cases: log2 fold change, soluble protein after heating vs DMSO (PISA); higher = thermal stabilisation; K562 lysate, 10 uM; active = over 0.2 and 3.5 SD of the protein, either way, in both replicates (recomputed)
[1] = compound: CC1=C2C(=CC=C1)N=C(N(C2=O)C3=CC=CC=C3C)CN4C=NC5=C(N=CN=C54)N
In short: (§1)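 Values give the log-two fold change in thermal stability against solvent controls, from duplicates. Crude K562 extract at 1 mg/mL protein, made by dounce homogenisation in PBS pH 7.4 with 1 mM MgCl2, was treated with 10 μM compound for 30 min. After 3 min heating across 48°C-58°C, aliquots were pooled, adjusted to 0.5% NP-40 at 4°C and centrifuged at 21,000xg for 90 min. The supernatant was measured by TMTpro 16plex LC-MS/MS with channel sums equalised.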

The chains behind the UniProt entries cited, without tags or fusion partners. Where a name states a change or a piece, a line headed by the entry shows the natural chain unless it says otherwise.
UniProt O15240: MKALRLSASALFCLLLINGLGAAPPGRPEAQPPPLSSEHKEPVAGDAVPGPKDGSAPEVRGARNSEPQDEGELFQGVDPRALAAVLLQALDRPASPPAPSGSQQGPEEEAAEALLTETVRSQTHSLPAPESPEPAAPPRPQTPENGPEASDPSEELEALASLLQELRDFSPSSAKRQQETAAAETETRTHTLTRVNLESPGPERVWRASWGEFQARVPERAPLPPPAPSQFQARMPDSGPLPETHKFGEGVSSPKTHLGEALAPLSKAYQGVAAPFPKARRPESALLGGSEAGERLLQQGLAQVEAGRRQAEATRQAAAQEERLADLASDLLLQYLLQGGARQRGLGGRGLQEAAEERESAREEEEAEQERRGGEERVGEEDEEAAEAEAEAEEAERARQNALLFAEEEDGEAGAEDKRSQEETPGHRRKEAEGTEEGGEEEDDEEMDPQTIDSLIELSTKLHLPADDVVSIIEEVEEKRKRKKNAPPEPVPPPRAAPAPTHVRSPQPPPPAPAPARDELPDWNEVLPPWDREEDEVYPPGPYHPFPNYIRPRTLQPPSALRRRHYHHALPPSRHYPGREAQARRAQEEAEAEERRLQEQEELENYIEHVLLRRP
UniProt Q8TEY7: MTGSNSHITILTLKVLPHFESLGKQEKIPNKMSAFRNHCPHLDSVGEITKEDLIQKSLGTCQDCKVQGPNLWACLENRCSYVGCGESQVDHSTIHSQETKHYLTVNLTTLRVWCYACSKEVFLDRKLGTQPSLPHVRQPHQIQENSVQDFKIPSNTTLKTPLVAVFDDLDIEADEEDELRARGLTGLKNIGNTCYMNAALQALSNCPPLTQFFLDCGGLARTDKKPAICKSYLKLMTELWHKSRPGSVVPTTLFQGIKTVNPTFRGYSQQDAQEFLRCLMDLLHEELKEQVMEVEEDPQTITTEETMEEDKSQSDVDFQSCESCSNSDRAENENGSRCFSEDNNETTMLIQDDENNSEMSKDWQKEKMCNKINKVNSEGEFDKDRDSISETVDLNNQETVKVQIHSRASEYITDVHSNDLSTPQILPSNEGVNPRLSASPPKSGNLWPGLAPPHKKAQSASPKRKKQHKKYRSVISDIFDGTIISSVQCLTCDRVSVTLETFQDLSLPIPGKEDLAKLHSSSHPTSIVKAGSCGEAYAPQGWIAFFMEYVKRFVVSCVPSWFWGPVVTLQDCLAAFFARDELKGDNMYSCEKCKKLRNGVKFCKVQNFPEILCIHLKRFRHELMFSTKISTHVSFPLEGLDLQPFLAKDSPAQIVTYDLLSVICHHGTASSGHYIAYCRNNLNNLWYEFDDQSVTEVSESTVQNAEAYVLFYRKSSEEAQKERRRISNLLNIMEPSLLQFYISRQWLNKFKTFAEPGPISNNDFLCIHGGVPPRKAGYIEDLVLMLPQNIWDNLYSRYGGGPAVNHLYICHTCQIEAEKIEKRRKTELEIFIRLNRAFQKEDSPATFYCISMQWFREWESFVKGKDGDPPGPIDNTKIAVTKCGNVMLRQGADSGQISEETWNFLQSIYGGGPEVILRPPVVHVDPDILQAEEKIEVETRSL
UniProt P52735: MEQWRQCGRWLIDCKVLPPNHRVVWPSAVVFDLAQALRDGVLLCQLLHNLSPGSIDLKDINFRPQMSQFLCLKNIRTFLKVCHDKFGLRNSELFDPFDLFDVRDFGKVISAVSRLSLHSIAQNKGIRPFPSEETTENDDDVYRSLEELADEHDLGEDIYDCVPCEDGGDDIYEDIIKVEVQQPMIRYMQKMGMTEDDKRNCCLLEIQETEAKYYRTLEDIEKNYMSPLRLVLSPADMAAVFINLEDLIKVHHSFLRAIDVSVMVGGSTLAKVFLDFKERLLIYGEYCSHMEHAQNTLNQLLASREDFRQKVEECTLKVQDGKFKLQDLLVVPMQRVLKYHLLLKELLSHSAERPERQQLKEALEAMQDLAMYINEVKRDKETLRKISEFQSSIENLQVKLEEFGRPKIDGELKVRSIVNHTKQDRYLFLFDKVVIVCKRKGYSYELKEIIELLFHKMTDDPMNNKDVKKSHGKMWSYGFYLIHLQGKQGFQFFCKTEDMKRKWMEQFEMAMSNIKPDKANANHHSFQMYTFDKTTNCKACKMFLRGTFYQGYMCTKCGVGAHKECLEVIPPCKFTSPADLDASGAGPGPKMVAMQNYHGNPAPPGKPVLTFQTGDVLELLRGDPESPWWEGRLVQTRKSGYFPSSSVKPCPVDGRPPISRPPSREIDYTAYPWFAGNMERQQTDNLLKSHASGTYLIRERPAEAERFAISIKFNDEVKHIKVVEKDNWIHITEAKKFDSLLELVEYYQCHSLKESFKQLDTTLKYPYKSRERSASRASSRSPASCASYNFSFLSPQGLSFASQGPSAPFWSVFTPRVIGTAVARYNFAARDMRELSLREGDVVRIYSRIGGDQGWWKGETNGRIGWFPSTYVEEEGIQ
UniProt O60287: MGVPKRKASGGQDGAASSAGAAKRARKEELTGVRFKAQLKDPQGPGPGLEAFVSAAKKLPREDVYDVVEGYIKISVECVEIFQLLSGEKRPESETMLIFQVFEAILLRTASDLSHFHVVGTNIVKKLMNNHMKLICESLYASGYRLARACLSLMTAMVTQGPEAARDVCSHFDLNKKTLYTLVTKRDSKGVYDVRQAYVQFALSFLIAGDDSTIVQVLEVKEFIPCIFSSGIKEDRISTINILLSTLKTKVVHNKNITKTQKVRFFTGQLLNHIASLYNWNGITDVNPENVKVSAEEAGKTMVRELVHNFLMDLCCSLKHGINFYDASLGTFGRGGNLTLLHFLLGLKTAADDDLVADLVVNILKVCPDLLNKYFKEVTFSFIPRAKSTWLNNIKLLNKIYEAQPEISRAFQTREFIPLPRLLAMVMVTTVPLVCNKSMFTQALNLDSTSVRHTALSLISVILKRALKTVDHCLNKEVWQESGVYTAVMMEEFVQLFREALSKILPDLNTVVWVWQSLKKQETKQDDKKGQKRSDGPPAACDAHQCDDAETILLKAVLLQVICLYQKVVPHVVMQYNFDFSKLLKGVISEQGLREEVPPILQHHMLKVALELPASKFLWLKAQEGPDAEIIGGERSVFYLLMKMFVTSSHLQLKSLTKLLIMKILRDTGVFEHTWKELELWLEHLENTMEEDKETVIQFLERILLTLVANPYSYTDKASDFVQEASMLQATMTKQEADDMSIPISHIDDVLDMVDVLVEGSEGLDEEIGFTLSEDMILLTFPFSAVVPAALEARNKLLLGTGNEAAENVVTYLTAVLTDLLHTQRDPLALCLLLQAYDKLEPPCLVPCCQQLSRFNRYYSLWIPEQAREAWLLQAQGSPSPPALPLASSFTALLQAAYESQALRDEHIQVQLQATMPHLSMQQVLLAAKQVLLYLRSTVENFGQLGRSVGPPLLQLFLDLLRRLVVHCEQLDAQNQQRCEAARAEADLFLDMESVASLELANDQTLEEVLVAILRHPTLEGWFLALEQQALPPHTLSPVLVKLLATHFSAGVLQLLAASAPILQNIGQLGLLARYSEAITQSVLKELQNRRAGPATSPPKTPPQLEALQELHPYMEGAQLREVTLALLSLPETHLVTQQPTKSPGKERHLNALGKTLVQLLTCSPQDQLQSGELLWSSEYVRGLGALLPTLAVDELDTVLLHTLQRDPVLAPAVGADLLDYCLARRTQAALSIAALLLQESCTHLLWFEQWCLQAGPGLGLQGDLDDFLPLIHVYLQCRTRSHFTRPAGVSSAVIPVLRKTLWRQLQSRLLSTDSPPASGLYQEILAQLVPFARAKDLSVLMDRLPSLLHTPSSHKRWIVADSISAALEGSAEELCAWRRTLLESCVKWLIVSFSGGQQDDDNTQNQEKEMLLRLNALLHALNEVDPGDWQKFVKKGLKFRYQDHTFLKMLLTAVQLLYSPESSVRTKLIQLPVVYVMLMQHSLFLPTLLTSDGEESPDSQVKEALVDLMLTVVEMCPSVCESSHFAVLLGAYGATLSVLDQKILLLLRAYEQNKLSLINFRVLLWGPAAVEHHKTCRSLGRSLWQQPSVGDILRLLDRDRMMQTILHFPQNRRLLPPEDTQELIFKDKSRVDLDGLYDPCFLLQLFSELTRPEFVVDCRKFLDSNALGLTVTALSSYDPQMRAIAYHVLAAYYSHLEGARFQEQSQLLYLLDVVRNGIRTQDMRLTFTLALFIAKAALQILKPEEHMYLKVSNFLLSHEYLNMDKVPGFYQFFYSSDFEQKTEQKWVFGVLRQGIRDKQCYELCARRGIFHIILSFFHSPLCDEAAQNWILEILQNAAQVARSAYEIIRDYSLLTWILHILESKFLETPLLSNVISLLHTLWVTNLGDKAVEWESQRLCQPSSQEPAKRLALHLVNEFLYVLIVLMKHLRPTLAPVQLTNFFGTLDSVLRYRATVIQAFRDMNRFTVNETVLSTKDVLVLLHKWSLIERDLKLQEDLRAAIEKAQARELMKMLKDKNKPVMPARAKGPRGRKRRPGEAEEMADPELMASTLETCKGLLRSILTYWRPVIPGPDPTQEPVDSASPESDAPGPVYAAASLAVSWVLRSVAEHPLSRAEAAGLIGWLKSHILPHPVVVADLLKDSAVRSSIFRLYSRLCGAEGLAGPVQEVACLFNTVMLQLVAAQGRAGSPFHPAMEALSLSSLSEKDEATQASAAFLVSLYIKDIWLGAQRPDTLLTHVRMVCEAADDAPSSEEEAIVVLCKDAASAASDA

[2] = compound: Cc1sc2c(c1C)C(c1ccc(Cl)cc1)=N[C@@H](CC(=O)OC(C)(C)C)c1nnc(C)n1-2
In short: as §1

[3] = compound: c1ccc([C@@H]2C[C@H]2NC2CCNCC2)cc1
In short: as §1

Row | Target | log2 fold change [1] | log2 fold change [2] | log2 fold change [3]
1 | VGF (UniProt O15240) | inactive: -0.07 | inactive: 0 | 
2 | USP33 (UniProt Q8TEY7) |  | inactive: -0.182 | inactive: -0.219
3 | VAV2 (UniProt P52735) | inactive: -0.063 | inactive: -0.247 | 
4 | URB1 (UniProt O60287) | inactive: 0.031 | inactive: 0.015 | inactive: 0.741

Reference: the supplement of paper PMC10849652
